Measurements published in article PMC13598225, “Alternative splicing of synaptotagmin 7 regulates oligomerization and short-term synaptic plasticity” (Proceedings of the National Academy of Sciences of the …, 2026).
No constants are given. Whether binding was seen depends on the method and setting. For part of these data: In cells and extracts the contact can be indirect. Some binding calls cover weakened binding; strength is not graded here. Each block holds one molecule with its values, some of them ahead of it.

Protein sequences, listed by entry. Tags and fused reporters are not part of them. Lines headed by an entry give the natural chain unless they say otherwise; changes in a name come on top. Residues count along the entry.
UniProt Q9R0N7: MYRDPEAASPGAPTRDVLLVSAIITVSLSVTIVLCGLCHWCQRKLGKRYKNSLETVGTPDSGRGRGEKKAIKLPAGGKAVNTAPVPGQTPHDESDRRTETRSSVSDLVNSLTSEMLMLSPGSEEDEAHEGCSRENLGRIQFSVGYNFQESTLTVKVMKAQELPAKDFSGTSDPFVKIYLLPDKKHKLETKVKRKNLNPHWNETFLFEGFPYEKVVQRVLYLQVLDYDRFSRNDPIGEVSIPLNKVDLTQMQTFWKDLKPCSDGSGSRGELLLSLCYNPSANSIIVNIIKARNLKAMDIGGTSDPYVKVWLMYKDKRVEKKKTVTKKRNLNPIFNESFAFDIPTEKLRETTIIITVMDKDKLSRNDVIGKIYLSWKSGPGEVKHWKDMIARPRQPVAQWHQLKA
α-syt7cyto immobilised for HaloTag pull-down: residues 38-403 of Q9R0N7

Assays:
[1] = target: α-syt7-fl-FLAG (full-length synaptotagmin 7, α splice variant, FLAG tag) (UniProt Q9R0N7); assay: co-IP; immunoprecipitation from rat hippocampal neurons expressing α-syt7-fl-FLAG, in the absence of cross-linkers
[2] = target: α-syt7cyto-mRuby (cytoplasmic domain of synaptotagmin 7, α splice variant, C-terminal mRuby) (UniProt Q9R0N7); assay: dynamic light scattering; size of protein droplets and aggregates of mRuby-tagged proteins; the instrument cannot distinguish particle sizes >1 µm; both purified
[3] = target: α-syt7cyto immobilised for HaloTag pull-down (UniProt Q9R0N7); assay: pull-down; HaloTag pull-down; syt7 immobilised; syt1-fl reconstituted into liposomes; Ca2+ against EGTA; both purified

binding [1]: binds
Molecule: synaptotagmin 1 (syt1), endogenous in rat hippocampal neurons (from UniProt P21707 1-421)

binding [2]: binds
Molecule: α-syt7cyto-mRuby (cytoplasmic domain of synaptotagmin 7, α splice variant, C-terminal mRuby) (from UniProt Q9R0N7 38-403) (domain or fragment)

binding [3]: binds
B1: syt1-fl reconstituted into liposomes (full-length synaptotagmin 1) (natural protein, UniProt P21707 1-421, looked up)
chain: MVSASHPEALAAPVTTVATLVPHNATEPASPGEGKEDAFSKLKQKFMNELHKIPLPPWALIAIAIVAVLLVVTCCFCVCKKCLFKKKNKKKGKEKGGKNAINMKDVKDLGKTMKDQALKDDDAETGLTDGEEKEEPKEEEKLGKLQYSLDYDFQNNQLLVGIIQAAELPALDMGGTSDPYVKVFLLPDKKKKFETKVHRKTLNPVFNEQFTFKVPYSELGGKTLVMAVYDFDRFSKHDIIGEFKVPMNTVDFGHVTEEWRDLQSAEKEEQEKLGDICFSLRYVPTAGKLTVVILEAKNLKKMDVGGLSDPYVKIHLMQNGKRLKKKKTTIKKNTLNPYYNESFSFEVPFEQIQKVQVVVTVLDYDKIGKNDAIGKVFVGYNSTGAELRHWSDMLANPRRPIAQWHTLQVEEEVDAMLAVKK
notes: synaptotagmin 1, full length (fl); Construct and host are in SI Appendix; source: reconstituted into liposomes
